Measured values from PubChem BioAssay AID1117359 (Southern Research Institute, 2015).

Test system: THP-1 viability, CellTiter-Glo luminescence, 72 h
Assay: viability loss in THP-1 monocytes – THP-1 cells, cytotoxicity control for Vif-APOBEC3G degradation inhibitor project, dose response (AID 1117359)

Cc1c2cc(O)c(=O)cc-2oc2cc(O)c(O)cc12
CC50: 18.6 µM
